The target in the assay is T1, Derlin-1 (human (endogenous in A549)) (UniProt Q9BUN8).
T1 sequence: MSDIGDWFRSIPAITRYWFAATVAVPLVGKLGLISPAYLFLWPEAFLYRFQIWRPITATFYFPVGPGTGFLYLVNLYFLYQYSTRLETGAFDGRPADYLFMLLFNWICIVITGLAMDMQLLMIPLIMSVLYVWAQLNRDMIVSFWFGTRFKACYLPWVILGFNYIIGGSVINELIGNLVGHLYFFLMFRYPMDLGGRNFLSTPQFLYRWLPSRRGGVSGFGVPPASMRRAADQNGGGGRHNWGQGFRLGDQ
The experiment in a line: co-IP; A549 cells treated with TM for 8 h; lysate (50 mM Tris pH 7.5, 150 mM NaCl, 1 mM EDTA, 1% Triton X-100) incubated with Derlin-1 antibody, A + G agarose beads, 4°C; western blot with p62 and Derlin-1 antibodies.

No constants are given. Whether binding was seen depends on the method and setting. In cells and extracts the contact can be indirect. Some entries that bind do so weakly or less than the wild type.

Take p62/SQSTM1 (from UniProt Q13501 1-440): the binding result was “binds”.

Values taken from publication PMC4061450.
